Test results: article PMC4914336
No constants are given. Whether binding was seen depends on the method and setting. In cells and extracts the contact can be indirect. Some entries that bind do so weakly or less than the wild type.

Amino acid sequences for entries named in this document (tags omitted). Residues count along the entry.
UniProt P11021, residues 19-654: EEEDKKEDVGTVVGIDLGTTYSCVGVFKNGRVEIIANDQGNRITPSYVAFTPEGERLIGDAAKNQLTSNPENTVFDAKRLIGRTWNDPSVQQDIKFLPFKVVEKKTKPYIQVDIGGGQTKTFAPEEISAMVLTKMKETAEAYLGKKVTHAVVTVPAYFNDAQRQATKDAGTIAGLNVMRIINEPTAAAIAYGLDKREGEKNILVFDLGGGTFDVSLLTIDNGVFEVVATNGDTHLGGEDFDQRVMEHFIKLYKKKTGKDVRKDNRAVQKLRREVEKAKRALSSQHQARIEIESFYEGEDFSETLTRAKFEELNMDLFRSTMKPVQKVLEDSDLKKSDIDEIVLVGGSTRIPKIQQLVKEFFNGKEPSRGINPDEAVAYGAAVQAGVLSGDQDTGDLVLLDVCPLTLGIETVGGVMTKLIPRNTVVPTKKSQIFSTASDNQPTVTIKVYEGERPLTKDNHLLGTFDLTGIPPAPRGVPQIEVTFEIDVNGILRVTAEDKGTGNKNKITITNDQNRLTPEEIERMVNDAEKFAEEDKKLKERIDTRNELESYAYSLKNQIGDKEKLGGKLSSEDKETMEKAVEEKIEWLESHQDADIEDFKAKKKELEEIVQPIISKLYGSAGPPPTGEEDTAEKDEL

Molecular target: GRP78 (human (endogenous; the cell line of this experiment is not given)) (UniProt P11021)
Assay: co-IP; immuno-precipitates of endogenous HSP90, GRP78, HSP70 or HSP27 from cells expressing only endogenous levels; cells treated with vehicle, OSU-03012, pazopanib or AR-13; blots of co-precipitating proteins

B1: WASF3 (protein, UniProt Q9UPY6 1-502)
chain: MPLVKRNIEPRHLCRGALPEGITSELECVTNSTLAAIIRQLSSLSKHAEDIFGELFNEANNFYIRANSLQDRIDRLAVKVTQLDSTVEEVSLQDINMKKAFKSSTVQDQQVVSKNSIPNPVADIYNQSDKPPPLNILTPYRDDKKDGLKFYTDPSYFFDLWKEKMLQDTEDKRKEKRRQKEQKRIDGTTREVKKVRKARNRRQEWNMMAYDKELRPDNRLSQSVYHGASSEGSLSPDTRSHASDVTDYSYPATPNHSLHPQPVTPSYAAGDVPPHGPASQAAEHEYRPPSASARHMALNRPQQPPPPPPPQAPEGSQASAPMAPADYGMLPAQIIEYYNPSGPPPPPPPPVIPSAQTAFVSPLQMPMQPPFPASASSTHAAPPHPPSTGLLVTAPPPPGPPPPPPGPPGPGSSLSSSPMHGPPVAEAKRQEPAQPPISDARSDLLAAIRMGIQLKKVQEQREQEAKREPVGNDVATILSRRIAVEYSDSDDDSEFDENDWSD
Q: Which binding does the source give for B1 here?
A: binds
